Laboratory results reported in article PMC12238573 (Nature Communications, 2025).
These are yes or no findings as the source states them, for the method shown. For part of these data: Binding seen in cells or lysates may run through a third protein. Some entries that bind do so weakly or less than the wild type.

T1: PRPS2 (endogenous, mouse) (mouse (endogenous in NIH3T3 and C57BL/6 tissues)) (UniProt Q9CS42)
T1 sequence: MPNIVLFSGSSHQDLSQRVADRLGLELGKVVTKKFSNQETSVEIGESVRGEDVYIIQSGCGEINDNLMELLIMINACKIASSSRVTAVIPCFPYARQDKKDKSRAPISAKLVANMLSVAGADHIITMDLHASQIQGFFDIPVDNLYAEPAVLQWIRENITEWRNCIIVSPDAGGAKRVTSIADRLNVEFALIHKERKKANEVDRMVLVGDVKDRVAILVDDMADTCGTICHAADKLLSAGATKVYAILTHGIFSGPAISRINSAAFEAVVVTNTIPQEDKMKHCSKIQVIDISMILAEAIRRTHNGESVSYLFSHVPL

T2: PRPSAP2 (endogenous, mouse) (mouse (endogenous in NIH3T3 and C57BL/6 tissues)) (UniProt Q8R574)
T2 sequence: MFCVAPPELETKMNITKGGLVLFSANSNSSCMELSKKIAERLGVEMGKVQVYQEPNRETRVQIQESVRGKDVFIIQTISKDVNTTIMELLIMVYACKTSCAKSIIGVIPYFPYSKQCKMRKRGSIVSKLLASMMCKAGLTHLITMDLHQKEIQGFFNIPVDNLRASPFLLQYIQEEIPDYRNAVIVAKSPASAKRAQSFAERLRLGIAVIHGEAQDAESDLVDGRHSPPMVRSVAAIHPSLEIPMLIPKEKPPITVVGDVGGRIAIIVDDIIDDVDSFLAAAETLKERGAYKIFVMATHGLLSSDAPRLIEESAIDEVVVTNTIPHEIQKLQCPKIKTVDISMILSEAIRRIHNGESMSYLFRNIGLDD

T3: PRPS1-ALFA (transiently transfected) (UniProt Q9D7G0)
T3 sequence: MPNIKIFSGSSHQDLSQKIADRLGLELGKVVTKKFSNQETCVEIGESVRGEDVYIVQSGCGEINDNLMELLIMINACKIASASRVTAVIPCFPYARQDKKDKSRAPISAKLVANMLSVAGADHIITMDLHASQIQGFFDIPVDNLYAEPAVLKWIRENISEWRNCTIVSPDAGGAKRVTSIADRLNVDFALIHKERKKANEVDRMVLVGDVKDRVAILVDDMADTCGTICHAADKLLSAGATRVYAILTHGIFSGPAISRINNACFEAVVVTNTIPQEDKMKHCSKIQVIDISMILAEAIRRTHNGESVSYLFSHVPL

T4: PRPS1 (endogenous, mouse) (mouse (endogenous in NIH3T3 and C57BL/6 tissues)) (UniProt Q9D7G0)
T4 sequence: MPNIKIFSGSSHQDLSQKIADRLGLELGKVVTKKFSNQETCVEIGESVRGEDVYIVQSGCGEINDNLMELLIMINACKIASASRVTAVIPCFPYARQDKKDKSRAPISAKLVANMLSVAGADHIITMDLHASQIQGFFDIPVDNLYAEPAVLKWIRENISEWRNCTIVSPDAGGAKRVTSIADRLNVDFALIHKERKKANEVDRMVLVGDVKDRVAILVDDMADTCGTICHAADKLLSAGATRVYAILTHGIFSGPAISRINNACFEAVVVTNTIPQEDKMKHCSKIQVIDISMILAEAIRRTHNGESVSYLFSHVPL

T5: PRPS1-mNG11-ALFA (endogenous knock-in) (mouse (endogenous in NIH3T3)) (UniProt Q9D7G0)
T5 sequence: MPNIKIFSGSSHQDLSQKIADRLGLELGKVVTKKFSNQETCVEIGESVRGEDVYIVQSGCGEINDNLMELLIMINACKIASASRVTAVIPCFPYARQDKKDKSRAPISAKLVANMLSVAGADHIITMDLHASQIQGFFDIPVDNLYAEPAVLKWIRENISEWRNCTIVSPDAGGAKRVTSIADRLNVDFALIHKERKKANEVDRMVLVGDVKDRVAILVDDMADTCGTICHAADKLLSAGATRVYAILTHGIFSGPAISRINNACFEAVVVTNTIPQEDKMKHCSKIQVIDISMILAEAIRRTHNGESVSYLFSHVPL


Tests used:
[1] = molecular target: T1, PRPS2 (endogenous, mouse) (mouse (endogenous in NIH3T3 and C57BL/6 tissues)); experiment: SEC; native tissue lysates (liver, kidney, lung) of 12-week-old male C57BL/6 mice on Superose 6 Increase 3.2/300; fractions analysed by Western blot
[2] = molecular target: T2, PRPSAP2 (endogenous, mouse) (mouse (endogenous in NIH3T3 and C57BL/6 tissues)); experiment: as above
[3] = molecular target: PRPSAP1 (endogenous, mouse) (mouse (endogenous in NIH3T3 and C57BL/6 tissues)) (UniProt Q9D0M1); experiment: SEC; native whole-cell lysates of NIH3T3 P2/AP2 KO cells and of P2/AP1/AP2 KO cells stably expressing AP1 (no PRPS2, no AP2) on Superose 6 Increase 3.2/300; fractions analysed by Western blot
[4] = molecular target: T1, PRPS2 (endogenous, mouse) (mouse (endogenous in NIH3T3 and C57BL/6 tissues)); experiment: SEC; native whole-cell lysates of parental NIH3T3 and HEK293T cells on Superose 6 Increase 3.2/300; fractions analysed by Western blot with internal size standards; digitonin lysis buffer pH 7.5, 200 mM NaCl
[5] = molecular target: T2, PRPSAP2 (endogenous, mouse) (mouse (endogenous in NIH3T3 and C57BL/6 tissues)); experiment: as above
[6] = molecular target: T1, PRPS2 (endogenous, mouse) (mouse (endogenous in NIH3T3 and C57BL/6 tissues)); experiment: SEC; native whole-cell lysates of NIH3T3 CRISPR knockout lines (P2/AP1/AP2, P2/AP1, P1/AP2, P1, P2, AP2, AP1, AP1/AP2, P1/AP1 KO), some re-expressing PRPS2, AP1 or AP2 constructs, on Superose 6 Increase 3.2/300; fractions analysed by Western blot
[7] = molecular target: T2, PRPSAP2 (endogenous, mouse) (mouse (endogenous in NIH3T3 and C57BL/6 tissues)); experiment: as above
[8] = molecular target: T3, PRPS1-ALFA (transiently transfected); experiment: co-IP; ALFA pulldown from whole cell extracts of NIH3T3 P2/AP2 KO cells transiently transfected with PRPS1-ALFA
[9] = molecular target: PRPSAP1-ALFA, short isoform (UniProt Q14558); experiment: SEC; native whole-cell lysates of NIH3T3 P2/AP2 KO cells and of P2/AP1/AP2 KO cells stably expressing AP1 (no PRPS2, no AP2) on Superose 6 Increase 3.2/300; fractions analysed by Western blot
[10] = molecular target: T4, PRPS1 (endogenous, mouse) (mouse (endogenous in NIH3T3 and C57BL/6 tissues)); experiment: SEC; native tissue lysates (liver, kidney, lung) of 12-week-old male C57BL/6 mice on Superose 6 Increase 3.2/300; fractions analysed by Western blot
[11] = molecular target: T4, PRPS1 (endogenous, mouse) (mouse (endogenous in NIH3T3 and C57BL/6 tissues)); experiment: SEC; native whole-cell lysates of parental NIH3T3 and HEK293T cells on Superose 6 Increase 3.2/300; fractions analysed by Western blot with internal size standards; digitonin lysis buffer pH 7.5, 200 mM NaCl
[12] = molecular target: T5, PRPS1-mNG11-ALFA (endogenous knock-in) (mouse (endogenous in NIH3T3)); experiment: co-IP; ALFA-tag pulldown (anti-ALFA nanobody agarose) from lysate of NIH3T3 knock-in cells expressing PRPS1-ALFA from the endogenous locus; washes with 0.5 M NaCl, 0.5% Triton X-100
[13] = molecular target: T4, PRPS1 (endogenous, mouse) (mouse (endogenous in NIH3T3 and C57BL/6 tissues)); experiment: SEC; native whole-cell lysates of NIH3T3 CRISPR knockout lines (P2/AP1/AP2, P2/AP1, P1/AP2, P1, P2, AP2, AP1, AP1/AP2, P1/AP1 KO), some re-expressing PRPS2, AP1 or AP2 constructs, on Superose 6 Increase 3.2/300; fractions analysed by Western blot
[14] = molecular target: T4, PRPS1 (endogenous, mouse) (mouse (endogenous in NIH3T3 and C57BL/6 tissues)); experiment: SEC; native whole-cell lysates of NIH3T3 AP1 KO and AP1/AP2 KO cells on Yarra SEC-2000 (1 kDa to 300 kDa); fractions analysed by Western blot

Row | binding [1] | binding [2] | binding [3] | binding [4] | binding [5] | binding [6] | binding [7] | binding [8] | binding [9] | binding [10] | binding [11] | binding [12] | binding [13] | binding [14] | Binder
1 | binds | binds | binds | binds | binds | binds | binds | binds weakly | – | – | – | – | – | – | PRPSAP1 (endogenous, mouse) (protein, UniProt Q9D0M1 1-356) MNAARTGYRVFSANSTAACTELAKRITERLGAELGKSVVYQETNGETRVEIKESVRGQDIFIIQTIPRDVNTAVMELLIMAYALKTACARNIIGVIPYFPYSKQSKMRKRGSIVCKLLASMLAKAGLTHIITMDLHQKEIQGFFSFPVDNLRASPFLLQYIQEEIPNYRNAVIVAKSPDAAKRAQSYAERLRLGLAVIHGEAQCTELDMDDGRHSPPMVKNATVHPGLELPLMMAKEKPPITVVGDVGGRIAIIVDDIIDDVESFVAAAEILKERGAYKIYVMATHGILSAEAPRLIEESPIDEVVVTNTVPHELQKLQCPKIKTVDISLILSEAIRRIHNGESMAYLFRNITVDD
2 | – | – | – | – | – | binds | – | – | binds | – | – | – | – | – | PRPSAP1-ALFA, short isoform (protein, UniProt Q14558 1-356) MNAARTGYRVFSANSTAACTELAKRITERLGAELGKSVVYQETNGETRVEIKESVRGQDIFIIQTIPRDVNTAVMELLIMAYALKTACARNIIGVIPYFPYSKQSKMRKRGSIVCKLLASMLAKAGLTHIITMDLHQKEIQGFFSFPVDNLRASPFLLQYIQEEIPNYRNAVIVAKSPDAAKRAQSYAERLRLGLAVIHGEAQCTELDMDDGRHSPPMVKNATVHPGLELPLMMAKEKPPITVVGDVGGRIAIIVDDIIDDVESFVAAAEILKERGAYKIYVMATHGILSAEAPRLIEESSVDEVVVTNTVPHEVQKLQCPKIKTVDISLILSEAIRRIHNGESMAYLFRNITVDD
3 | – | – | – | – | – | – | – | – | – | binds | binds | binds | binds | binds | PRPS2 (endogenous, mouse) (enzyme, UniProt Q9CS42 1-318, looked up, PRPS2, endogenous in mouse cells and tissues; also called P2; phosphoribosyl pyrophosphate synthetase 2; source: endogenous, NIH3T3 lysate (parental and CRISPR knockout lines); endogenous, C57BL/6 mouse liver, kidney and lung lysates) MPNIVLFSGSSHQDLSQRVADRLGLELGKVVTKKFSNQETSVEIGESVRGEDVYIIQSGCGEINDNLMELLIMINACKIASSSRVTAVIPCFPYARQDKKDKSRAPISAKLVANMLSVAGADHIITMDLHASQIQGFFDIPVDNLYAEPAVLQWIRENITEWRNCIIVSPDAGGAKRVTSIADRLNVEFALIHKERKKANEVDRMVLVGDVKDRVAILVDDMADTCGTICHAADKLLSAGATKVYAILTHGIFSGPAISRINSAAFEAVVVTNTIPQEDKMKHCSKIQVIDISMILAEAIRRTHNGESVSYLFSHVPL
